# Screening data, single-dose tests

Sequences of proteins named here, by UniProt entry; tags and fusion partners are left off. Residues count along the entry.
UniProt Q8IDJ8, 1-583: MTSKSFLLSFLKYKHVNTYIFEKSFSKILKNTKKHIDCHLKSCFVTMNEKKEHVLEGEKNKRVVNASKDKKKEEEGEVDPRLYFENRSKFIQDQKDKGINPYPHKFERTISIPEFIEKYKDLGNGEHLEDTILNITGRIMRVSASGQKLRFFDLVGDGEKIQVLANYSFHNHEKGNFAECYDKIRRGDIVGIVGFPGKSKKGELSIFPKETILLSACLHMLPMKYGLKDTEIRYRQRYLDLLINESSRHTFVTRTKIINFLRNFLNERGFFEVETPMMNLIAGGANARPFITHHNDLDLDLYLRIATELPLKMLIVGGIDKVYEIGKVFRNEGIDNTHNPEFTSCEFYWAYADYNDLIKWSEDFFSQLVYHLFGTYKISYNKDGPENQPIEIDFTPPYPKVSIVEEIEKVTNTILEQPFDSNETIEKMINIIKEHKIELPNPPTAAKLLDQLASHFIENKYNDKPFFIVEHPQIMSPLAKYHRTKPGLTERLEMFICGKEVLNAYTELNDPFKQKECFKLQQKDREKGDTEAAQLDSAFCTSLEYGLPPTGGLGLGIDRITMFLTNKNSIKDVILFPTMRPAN
UniProt A4I591, 1-473: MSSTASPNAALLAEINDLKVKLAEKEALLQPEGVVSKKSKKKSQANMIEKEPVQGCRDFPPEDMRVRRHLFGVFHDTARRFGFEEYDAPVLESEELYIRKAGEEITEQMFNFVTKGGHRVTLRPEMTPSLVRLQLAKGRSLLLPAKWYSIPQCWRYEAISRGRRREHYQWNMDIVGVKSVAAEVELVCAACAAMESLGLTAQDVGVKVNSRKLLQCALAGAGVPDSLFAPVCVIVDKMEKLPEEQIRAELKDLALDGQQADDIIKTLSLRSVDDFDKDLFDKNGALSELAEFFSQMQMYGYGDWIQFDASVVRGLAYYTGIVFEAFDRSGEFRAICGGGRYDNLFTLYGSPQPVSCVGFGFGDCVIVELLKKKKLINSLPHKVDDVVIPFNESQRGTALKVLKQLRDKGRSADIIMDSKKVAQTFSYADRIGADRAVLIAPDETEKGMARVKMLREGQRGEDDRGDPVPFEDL

The filed quantity is “Percent Effect” (%). The controls that fix the scale are not given in the record; negative values are as filed. The compounds are a random part of those screened. Two or more numbers in one place are separate tests of the same structure; such repeats can differ widely. A dash means the value is not listed here; it may have been measured.

A: 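Cell assay of Leishmania donovani living inside macrophages; the read-out is not stated. Compounds at 30 µM. Higher reads as stronger inhibition (inferred: compounds with an IC50 in retests scored well above the rest). Of about 69,000 compounds tested this way, about 1,000 (1.5%) reached 50% or more in at least one test.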
B: 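Lysine-tRNA ligase, Plasmodium falciparum 3D7 (UniProt Q8IDJ8). Enzyme assay of the cytosolic lysyl-tRNA synthetase in 384-well plates, read by luminescence. Compounds at 30 µM. Direction is inferred from only a few compounds that gave an IC50; most scored high, so higher reads as stronger inhibition. Of about 69,000 compounds tested this way, about 49 (0.071%) reached 50% or more in at least one test.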
C: 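Enzyme assay of histidyl-tRNA synthetase; the read-out is not stated. Target: Histidine-tRNA ligase, Leishmania infantum (UniProt A4I591). Tested at 30 µM. The record gives no direction; compounds that gave an IC50 in retests scored well above the rest, so higher reads as stronger inhibition. The assay is labelled LdHisRS but filed under L. infantum. Size under these conditions: about 69,000 compounds, about 410 of them at 50% or above in at least one test.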

structure | A | B | C
CCC1=NN2C(=N)/C(=C/c3cccc(Cl)c3)C(=O)N=C2S1 | 9.53 | 4.286 | 17.65
O=C(O)c1cc2c(nc1N1CCOCC1)CCN(C1CCOC1)CC2 (stereo not given) | - | 1.141 | 7.965
O=C(NC1CC1)c1nc2c(s1)CCCN2c1ccccc1 | 7.861 | 2.711 | 19.3
Cc1cc(NC(=O)CN2CCn3c(nnc3C(C)C)C2)n(C)n1 | -15.63 | -4.507 | 10.71
COc1ccc(Br)cc1SCCC(N)=O | 37.11 | 4.06 | 30.85
CC(=O)NCCNc1nc(-c2ccccn2)nc2c1c(C)nn2C | -16.54 | 7.091 | 6.579
O=C(NCc1ccco1)N1CCC(n2cc(-c3ccccn3)nn2)CC1 | 15.39 | 1.147 | 24.81
CC1(C)COCCN1C(=O)Cc1csc(Cc2ccccn2)n1 | -8.903 | 8.315 | 7.895
Cc1csc2nc3n(c(=O)c12)CCN(C(=O)c1ccncc1)CC3 | 9.123 | 3.812 | 22.22
CCc1ccc(C(=O)N2CCN(CC(C)O)CC2)o1 (stereo not given) | 16.6 | 4.62 | 8.8
CN1CSC[C@H]1C(=O)N1CCC(Cc2ccccc2F)CC1 | 5.609 | 4.134 | 13.73
COc1ccccc1-c1cc(NC(=O)CCS(=O)(=O)C2CCCC2)[nH]n1 | 26.68 | 2.621 | 15.15
Cn1ccc2cc(C(=O)N3CC[C@@]4(O)CCCC[C@H]4C3)ccc21 | - | 6.134 | 15.79
Cc1cccc(NC2CCN(C(=O)Nc3ccccn3)CC2)n1 | 10.34 | -2.145 | 0
O=S(=O)(c1ccccc1)N1CCCC(Cn2cncn2)C1 (stereo not given) | 21.94 | 2.953 | 8.219
Cn1nc(Cn2cccn2)c2c1CN(C1CCOC1)C2 (stereo not given) | - | 8.989 | 10.53
CN(CCc1ccccc1)C1CCCN(Cc2nccn2C)C1 (stereo not given) | 4.854 | -4.443 | 19.81
CCOc1ccc(CNCCCn2ccnc2)cc1Br | 80.37 | 8.268 | 17.48
Cc1nc(S(=O)(=O)N2CCSCC2)cn1C | 21.26 | 2.437 | 7.229
O=C(c1cc(-c2ccco2)cs1)N1CCCC1 | 41.07 | 7.671 | 55
CCCc1nc(CN2CCCC(Cn3cncn3)C2)no1 (stereo not given) | -15.28 | 2.758 | 13.51
Cc1c(NC(C)C(C)C)cccc1C(=O)NCc1nccn1C (stereo not given) | 16.81 | 5.062 | 14.91
CCCN1CCCC2(CCN(Cc3cncn3C3CCCCC3)C2)C1=O (stereo not given) | 3.515 | -1.236 | 12.5
Cc1cnn(CC2CCN(CC(O)c3ccccc3)CC2)c1 (stereo not given) | -9.203 | 5.325 | -1.316
CN1CCCC1CCNC(=O)c1ccccc1-n1cc(CN)cn1 (stereo not given) | -12.52 | 0.2305 | 4.196
Cn1cccc1CN(C(=O)CC(CC(=O)O)c1cccs1)C1CC1 (stereo not given) | 8.54 | 2.119 | 9.333
COc1cc(CNC(c2ccccc2)c2nccn2C)cc(OC)c1 (stereo not given) | 19.89 | 0.2812 | 16.51
CS(=O)(=O)N1CCOCC12CCN(Cc1ccoc1)CC2 | -6.505 | 2.961 | 3.774
Cc1cnn(CC2CCN(c3cc(C(C)C)nc4ccnn34)CC2)c1 | 19.58 | 5.819 | 13.89
CNS(=O)(=O)CC1CCCN1C(=O)c1ccc2cc[nH]c2c1 (stereo not given) | -13.43 | 3.656 | 6.667
Cc1nc(C)n(CC2CCCN(Cc3nc(C4CC4)no3)C2)n1 (stereo not given) | 3.041 | 2.673 | 28.57
Cc1ccccc1CN1C[C@@H]2COC[C@]2(CNC(=O)C2CCC2)C1 | - | 1.074 | 13.86
CCOCC(=O)N1CCC2(CC1)COCCN2CCOC.O=C(O)C(F)(F)F | -9.039 | - | -
COCc1ccc(C(=O)N2CCCN(c3ccc(F)cc3)CC2)s1 | -12.35 | 4.259 | 18.64
COc1ccc(C)cc1-n1ccc(C(=O)NCC2CCCOC2)n1 (stereo not given) | 10.4 | 7.049 | 10.2
Cn1cccc1C(=O)N1CCN2C[C@H](Oc3cccnc3)C[C@H]2C1 | - | 9.62 | 7.965
COc1cccc(C(=O)N2CCCC(c3cc(C)[nH]n3)C2)c1OC (stereo not given) | 20.74 | 0.07225 | 42.86
[H][C@@]12COC[C@]1([H])[C@@H](OCCN(C)C)CN2C(=O)c1ccc[nH]1 | 22.21 | - | -
NC(=O)C1CCN(CC(=O)N(Cc2ccccc2)Cc2nccs2)CC1 | -10.55 | 3.4 | -4.196
Cn1cc(CN2CCCC3(CCN(C(=O)c4ccoc4)C3)C2)cn1 (stereo not given) | 0.2162 | -0.5109 | 20.59
O=C(NC1CCS(=O)(=O)C1)c1sccc1OC(F)F (stereo not given) | 22.6 | 2.296 | 12.12
CCOc1ccc(NC(=O)Cc2cc(C)[nH]n2)cc1CO | 11.09 | -2.29 | 7.042
O=C(CN1CCCC(Cn2cncn2)C1)Nc1cccnc1 (stereo not given) | 4.1 | 8.423 | 20.99
Cc1cc2nc(C(C)C)cc(N3CCC(N(C)C)C3)n2n1 (stereo not given) | 15.59 | 0.09192 | 20.65
O=C(NCC(F)(F)F)c1ccc(-c2ccco2)[nH]c1=O | 22.44 | 0.614 | 9.649
CN(C)C[C@@H]1CCC[C@@H]2CN(c3nccc(C(F)(F)F)n3)C[C@@H]21 | - | -1.973 | -1.942
O=C(NCCCn1cccn1)N1CCCC1c1cccs1 (stereo not given) | 10.29 | 6.359 | 4.464
O=C(NCc1ccccc1)NCC1CCN(Cc2ccsc2)CC1 | -25.27 | 4.105 | 15.73
CC(C)N1CCc2onc(Cn3cccc3)c2C1.O=C(O)C(F)(F)F | 10.12 | - | -
COCc1nc(-c2ccnc(N3CCNCC3)n2)no1 | - | 6.11 | 14.58
Cn1cccc1-c1nnc(C2(c3ccc4c(c3)OCO4)CCOCC2)o1 | 31.23 | 1.679 | 9.524
[H][C@@]12C[C@@H](OCc3ccccn3)CN1CCN(C(=O)c1ccsc1)C2 | 31.71 | - | -
CCCc1cc(C(=O)N2CCC3(CC2)CN(CCN(C)C)C(=O)O3)no1 | 37.4 | 4.346 | 18.75
O=C(O)C(F)(F)F.[H][C@]12CCN(Cc3ccccc3)CC[C@@]1([H])S(=O)(=O)NC2 | 18.41 & 10.66 | - | -
CC(C)Oc1ccccc1C1CC(=O)Nc2c1cnn2C (stereo not given) | -32.81 | 1.567 | -14.29
CC1CCCCN1C1CN(c2ccnc(C(=O)NCc3ccco3)c2)C1 (stereo not given) | -12.31 | 2.213 | 25
O=C(O)C(F)(F)F.[H][C@@]12COC[C@]1(COCC1CC1)CN(Cc1cnn(C)c1)C2 | 35.55 | - | -
CSCC(C)(O)CNC(=O)Nc1ccc(C)cc1Br (stereo not given) | -31.03 | 3.733 | 6
Cc1cn[nH]c1C1CCCCN1C(=O)CCc1c(C)n[nH]c1C (stereo not given) | 11.48 & 4.375 | 0.5488 | 7.246
Cc1nc(C2CCCN(C(=O)CCCOc3cccc(F)c3)C2)no1 (stereo not given) | -3.834 | 2.544 | 4
O=C(NCC1Cn2nnc(-c3ccncc3)c2CO1)c1ccc[nH]1 (stereo not given) | 27.98 | 6.776 | 7.273
COc1ccc(S(=O)(=O)N2CCC(O)(CN(C)C)C2)cc1 (stereo not given) | 17.67 & 6.085 | 0.6134 | 8.247
Cn1ncc2c1CN(C(=O)Cc1ccccn1)CC2COCC1CC1 (stereo not given) | - | 5.232 | 11
O=S(=O)(c1cccs1)N1CC[C@H]2[C@H]1CCN2CC1CC1 | - | 3.235 | 3.883
C[C@H](NC(=O)C1(N(C)Cc2ccccc2)Cc2ccccc2C1)C(N)=O | 16.23 | 0.5852 | 8.772
c1cncc(OC[C@]23COC[C@H]2CN(Cc2cccs2)C3)c1 | - | 11.84 | 17.31
O=C(C1CCC1)N1CC[C@@H]2CN(Cc3cccnc3)S(=O)(=O)[C@@H]2CC1 | - | 3.711 | 2.727

Measurements from “University of Dundee, Small-Polar-MMV Screening Library” (2021), ChEMBL document CHEMBL3988442.